The record followed here is patent publication US20190153061A1.

Amino acid sequences for entries named in this document (tags omitted). Residues count along the entry.
UniProt Q02223, residues 1-54: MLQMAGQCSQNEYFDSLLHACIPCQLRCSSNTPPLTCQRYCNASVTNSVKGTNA

Assay [1] addresses BCMA (BCMA substrate / Bio-BCMA, form not stated) (UniProt Q02223). As to the kind of experiment: competition assay, RU read-out.
The target of assay [2] is BCMA-Fc antigen (R&D Systems) (UniProt Q02223). As to the kind of experiment: flow cytometry of transduced SupT1 cells stained with BCMA-Fc.
For assay [3], the target named is BCMA (BCMA substrate / Bio-BCMA, form not stated) (UniProt Q02223). The assay can be described thus: panning on Bio-BCMA, ELISA for BCMA reactivity, then FACS of purified scFv. In general terms: In an ELISA, binding on a coated surface is turned into a signal by an enzyme label.

No constants are given. Whether binding was seen depends on the method and setting. Some results given as binding are weak or reduced against the parent protein; the word gives no strength.

B1: BCMA-4NP binding domain as used in the competition and affinity assays (scFv)
scFv: QVQLVQSGAEVKKPGSSVKVSCKASGGTFSNYWMHWVRQAPGQGLEWMGATYRGHSDTYYNQKFKGRVTITADKSTSTAYMELSSLRSEDTAVYYCARGAIYNGYDVLDNWGQGTLVTVSSGGGGSGGGGSGGGGSGGGGSDIQMTQSPSSLSASVGDRVTITCSASQDISNYLNWYQQKPGKAPKLLIYYTSNLHSGVPSRFSGSGSGTDFTLTISSLQPEDFATYYCQQYRKLPWTFGQGTKLEIKR
B1: the binding entry in assay [1] was “binds”.

B2: BCMA-4NP tool CAR (126021) (protein, not shown: a dimerising Fc or GST)
chain: B1 scFv
B2: the binding result in assay [2] is given as “binds”.

B3: BCMA-2 scFv (139101) (scFv)
scFv: QVQLQESGGGLVQPGGSLRLSCAASGFTFSSDAMTWVRQAPGKGLEWVSVISGSGGTTYYADSVKGRFTISRDNSKNTLYLQMNSLRAEDTAVYYCAKLDSSGYYYARGPRYWGQGTLVTVSSASGGGGSGGRASGGGGSDIQLTQSPSSLSASVGDRVTITCRASQSISSYLNWYQQKPGKAPKLLIYGASTLASGVPARFSGSGSGTHFTLTINSLQSEDSATYYCQQSYKRASFGQGTKVEIK
In the case of B3, the binding entry in assay [3] is recorded as “binds”.

B4: BCMA-1 scFv (139100) (scFv)
scFv: QVQLVQSGAEVRKTGASVKVSCKASGYIFDNFGINWVRQAPGQGLEWMGWINPKNNNTNYAQKFQGRVTITADESTNTAYMEVSSLRSEDTAVYYCARGPYYYQSYMDVWGQGTMVTVSSASGGGGSGGRASGGGGSDIVMTQTPLSLPVTPGEPASISCRSSQSLLHSNGYNYLNWYLQKPGQSPQLLIYLGSKRASGVPDRFSGSGSGTDFTLHITRVGAEDVGVYYCMQALQTPYTFGQGTKLEIK
Take B4: the binding result in assay [3] is listed as “binds”.

B5: BCMA-9 scFv (139108) (scFv)
scFv: QVQLVESGGGLVKPGGSLRLSCAASGFTFSDYYMSWIRQAPGKGLEWVSYISSSGSTIYYADSVKGRFTISRDNAKNSLYLQMNSLRAEDTAVYYCARESGDGMDVWGQGTTVTVSSASGGGGSGGRASGGGGSDIQMTQSPSSLSASVGDRVTITCRASQSISSYLNWYQQKPGKAPKLLIYAASSLQSGVPSRFSGSGSGTDFTLTISSLQPEDFATYYCQQSYTLAFGQGTKVDIK
As for B5, the binding entry in assay [3] is “binds”.

B6: BCMA-3 scFv (139102) (scFv)
scFv: QVQLVQSGAEVKKPGASVKVSCKASGYTFSNYGITWVRQAPGQGLEWMGWISAYNGNTNYAQKFQGRVTMTRNTSISTAYMELSSLRSEDTAVYYCARGPYYYYMDVWGKGTMVTVSSASGGGGSGGRASGGGGSEIVMTQSPLSLPVTPGEPASISCRSSQSLLYSNGYNYVDWYLQKPGQSPQLLIYLGSNRASGVPDRFSGSGSGTDFKLQISRVEAEDVGIYYCMQGRQFPYSFGQGTKVEIK
With B6, the binding entry in assay [3] is “binds”.

B7: BCMA-4 scFv (139103) (scFv)
scFv: QVQLVESGGGLVQPGRSLRLSCAASGFTFSNYAMSWVRQAPGKGLGWVSGISRSGENTYYADSVKGRFTISRDNSKNTLYLQMNSLRDEDTAVYYCARSPAHYYGGMDVWGQGTTVTVSSASGGGGSGGRASGGGGSDIVLTQSPGTLSLSPGERATLSCRASQSISSSFLAWYQQKPGQAPRLLIYGASRRATGIPDRFSGSGSGTDFTLTISRLEPEDSAVYYCQQYHSSPSWTFGQGTKLEIK
For B7, the binding result in assay [3] was “binds”.

B8: BCMA-11 scFv (139110) (scFv)
scFv: QVQLVQSGGGLVKPGGSLRLSCAASGFTFSDYYMSWIRQAPGKGLEWVSYISSSGNTIYYADSVKGRFTISRDNAKNSLYLQMNSLRAEDTAVYYCARSTMVREDYWGQGTLVTVSSASGGGGSGGRASGGGGSDIVLTQSPLSLPVTLGQPASISCKSSESLVHNSGKTYLNWFHQRPGQSPRRLIYEVSNRDSGVPDRFTGSGSGTDFTLKISRVEAEDVGVYYCMQGTHWPGTFGQGTKLEIK
Turning to B8, in assay [3], the binding result is on record as “binds”.
